Paper PMC10287742

Amino acid sequences for entries named in this document (tags omitted). A change or cut given only in a name is not applied to a line headed by its entry.
UniProt Q6ZNJ1: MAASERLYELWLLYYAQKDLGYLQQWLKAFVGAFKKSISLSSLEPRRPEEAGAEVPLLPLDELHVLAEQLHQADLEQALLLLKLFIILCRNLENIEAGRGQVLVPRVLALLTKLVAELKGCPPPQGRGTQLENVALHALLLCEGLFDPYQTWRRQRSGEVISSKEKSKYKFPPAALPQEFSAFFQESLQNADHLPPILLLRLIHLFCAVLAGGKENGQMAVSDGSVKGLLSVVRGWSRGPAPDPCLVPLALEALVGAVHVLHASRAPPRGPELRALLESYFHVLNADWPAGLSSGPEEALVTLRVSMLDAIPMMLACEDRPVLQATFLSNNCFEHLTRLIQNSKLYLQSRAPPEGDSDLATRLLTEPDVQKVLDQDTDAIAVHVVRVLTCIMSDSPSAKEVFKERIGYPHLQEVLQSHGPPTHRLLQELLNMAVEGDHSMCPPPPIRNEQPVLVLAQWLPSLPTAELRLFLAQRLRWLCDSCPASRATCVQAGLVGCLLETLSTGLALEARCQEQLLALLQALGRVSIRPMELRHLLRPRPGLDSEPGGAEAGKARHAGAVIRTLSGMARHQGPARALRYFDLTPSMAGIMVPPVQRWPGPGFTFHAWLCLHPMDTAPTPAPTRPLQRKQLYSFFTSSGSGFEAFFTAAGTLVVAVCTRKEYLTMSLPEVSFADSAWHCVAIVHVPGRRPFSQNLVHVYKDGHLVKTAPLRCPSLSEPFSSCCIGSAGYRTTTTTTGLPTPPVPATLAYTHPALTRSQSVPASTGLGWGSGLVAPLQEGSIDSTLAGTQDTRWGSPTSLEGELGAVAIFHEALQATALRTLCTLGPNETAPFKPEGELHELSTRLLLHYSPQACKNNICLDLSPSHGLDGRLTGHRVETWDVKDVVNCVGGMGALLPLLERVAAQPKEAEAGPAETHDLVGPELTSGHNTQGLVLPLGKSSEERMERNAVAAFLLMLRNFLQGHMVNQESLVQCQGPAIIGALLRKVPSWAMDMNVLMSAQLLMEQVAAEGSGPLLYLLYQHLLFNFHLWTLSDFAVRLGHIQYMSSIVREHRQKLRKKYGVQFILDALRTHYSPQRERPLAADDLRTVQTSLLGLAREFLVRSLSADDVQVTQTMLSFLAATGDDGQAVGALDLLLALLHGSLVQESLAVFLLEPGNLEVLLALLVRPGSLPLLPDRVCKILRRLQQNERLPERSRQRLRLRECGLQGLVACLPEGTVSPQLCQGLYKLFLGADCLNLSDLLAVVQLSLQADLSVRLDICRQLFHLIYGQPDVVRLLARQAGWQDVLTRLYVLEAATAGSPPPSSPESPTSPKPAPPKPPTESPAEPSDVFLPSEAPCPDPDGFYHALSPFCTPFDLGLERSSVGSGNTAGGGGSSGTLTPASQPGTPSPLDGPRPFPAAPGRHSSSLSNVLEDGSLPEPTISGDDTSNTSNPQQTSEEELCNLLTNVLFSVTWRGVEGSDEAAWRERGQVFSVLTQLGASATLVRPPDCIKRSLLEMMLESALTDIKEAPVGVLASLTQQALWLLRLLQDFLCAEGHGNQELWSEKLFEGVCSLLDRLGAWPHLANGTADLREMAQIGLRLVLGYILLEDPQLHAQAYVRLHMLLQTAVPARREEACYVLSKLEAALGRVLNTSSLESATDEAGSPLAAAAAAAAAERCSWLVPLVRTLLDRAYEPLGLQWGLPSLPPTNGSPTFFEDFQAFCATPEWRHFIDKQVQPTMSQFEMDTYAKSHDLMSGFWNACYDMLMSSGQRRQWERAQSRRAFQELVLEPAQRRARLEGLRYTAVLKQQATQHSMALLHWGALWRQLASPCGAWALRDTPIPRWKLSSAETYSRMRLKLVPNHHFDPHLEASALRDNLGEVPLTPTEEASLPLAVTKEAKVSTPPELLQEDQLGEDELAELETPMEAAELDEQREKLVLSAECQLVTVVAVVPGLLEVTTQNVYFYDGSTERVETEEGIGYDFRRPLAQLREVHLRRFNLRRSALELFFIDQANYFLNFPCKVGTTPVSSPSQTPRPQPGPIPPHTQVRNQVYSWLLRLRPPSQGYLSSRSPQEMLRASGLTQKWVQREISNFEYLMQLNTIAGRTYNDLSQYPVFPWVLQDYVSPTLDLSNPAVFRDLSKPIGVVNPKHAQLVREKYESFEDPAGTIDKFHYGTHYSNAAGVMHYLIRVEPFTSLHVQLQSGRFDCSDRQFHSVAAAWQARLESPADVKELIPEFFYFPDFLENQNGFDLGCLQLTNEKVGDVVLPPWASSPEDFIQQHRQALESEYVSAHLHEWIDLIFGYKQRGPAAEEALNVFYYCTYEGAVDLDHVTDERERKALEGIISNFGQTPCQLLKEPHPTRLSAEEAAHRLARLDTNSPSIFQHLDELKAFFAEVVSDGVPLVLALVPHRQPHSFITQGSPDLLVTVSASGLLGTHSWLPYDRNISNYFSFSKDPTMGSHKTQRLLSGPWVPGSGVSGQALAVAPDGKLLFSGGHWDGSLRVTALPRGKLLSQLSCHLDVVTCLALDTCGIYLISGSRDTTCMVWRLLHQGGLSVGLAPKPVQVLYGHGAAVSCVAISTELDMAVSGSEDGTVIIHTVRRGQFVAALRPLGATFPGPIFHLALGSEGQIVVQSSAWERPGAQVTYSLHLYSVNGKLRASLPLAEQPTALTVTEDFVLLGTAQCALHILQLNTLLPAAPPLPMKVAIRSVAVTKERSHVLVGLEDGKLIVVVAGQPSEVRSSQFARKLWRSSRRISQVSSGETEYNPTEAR
UniProt Q8NF50: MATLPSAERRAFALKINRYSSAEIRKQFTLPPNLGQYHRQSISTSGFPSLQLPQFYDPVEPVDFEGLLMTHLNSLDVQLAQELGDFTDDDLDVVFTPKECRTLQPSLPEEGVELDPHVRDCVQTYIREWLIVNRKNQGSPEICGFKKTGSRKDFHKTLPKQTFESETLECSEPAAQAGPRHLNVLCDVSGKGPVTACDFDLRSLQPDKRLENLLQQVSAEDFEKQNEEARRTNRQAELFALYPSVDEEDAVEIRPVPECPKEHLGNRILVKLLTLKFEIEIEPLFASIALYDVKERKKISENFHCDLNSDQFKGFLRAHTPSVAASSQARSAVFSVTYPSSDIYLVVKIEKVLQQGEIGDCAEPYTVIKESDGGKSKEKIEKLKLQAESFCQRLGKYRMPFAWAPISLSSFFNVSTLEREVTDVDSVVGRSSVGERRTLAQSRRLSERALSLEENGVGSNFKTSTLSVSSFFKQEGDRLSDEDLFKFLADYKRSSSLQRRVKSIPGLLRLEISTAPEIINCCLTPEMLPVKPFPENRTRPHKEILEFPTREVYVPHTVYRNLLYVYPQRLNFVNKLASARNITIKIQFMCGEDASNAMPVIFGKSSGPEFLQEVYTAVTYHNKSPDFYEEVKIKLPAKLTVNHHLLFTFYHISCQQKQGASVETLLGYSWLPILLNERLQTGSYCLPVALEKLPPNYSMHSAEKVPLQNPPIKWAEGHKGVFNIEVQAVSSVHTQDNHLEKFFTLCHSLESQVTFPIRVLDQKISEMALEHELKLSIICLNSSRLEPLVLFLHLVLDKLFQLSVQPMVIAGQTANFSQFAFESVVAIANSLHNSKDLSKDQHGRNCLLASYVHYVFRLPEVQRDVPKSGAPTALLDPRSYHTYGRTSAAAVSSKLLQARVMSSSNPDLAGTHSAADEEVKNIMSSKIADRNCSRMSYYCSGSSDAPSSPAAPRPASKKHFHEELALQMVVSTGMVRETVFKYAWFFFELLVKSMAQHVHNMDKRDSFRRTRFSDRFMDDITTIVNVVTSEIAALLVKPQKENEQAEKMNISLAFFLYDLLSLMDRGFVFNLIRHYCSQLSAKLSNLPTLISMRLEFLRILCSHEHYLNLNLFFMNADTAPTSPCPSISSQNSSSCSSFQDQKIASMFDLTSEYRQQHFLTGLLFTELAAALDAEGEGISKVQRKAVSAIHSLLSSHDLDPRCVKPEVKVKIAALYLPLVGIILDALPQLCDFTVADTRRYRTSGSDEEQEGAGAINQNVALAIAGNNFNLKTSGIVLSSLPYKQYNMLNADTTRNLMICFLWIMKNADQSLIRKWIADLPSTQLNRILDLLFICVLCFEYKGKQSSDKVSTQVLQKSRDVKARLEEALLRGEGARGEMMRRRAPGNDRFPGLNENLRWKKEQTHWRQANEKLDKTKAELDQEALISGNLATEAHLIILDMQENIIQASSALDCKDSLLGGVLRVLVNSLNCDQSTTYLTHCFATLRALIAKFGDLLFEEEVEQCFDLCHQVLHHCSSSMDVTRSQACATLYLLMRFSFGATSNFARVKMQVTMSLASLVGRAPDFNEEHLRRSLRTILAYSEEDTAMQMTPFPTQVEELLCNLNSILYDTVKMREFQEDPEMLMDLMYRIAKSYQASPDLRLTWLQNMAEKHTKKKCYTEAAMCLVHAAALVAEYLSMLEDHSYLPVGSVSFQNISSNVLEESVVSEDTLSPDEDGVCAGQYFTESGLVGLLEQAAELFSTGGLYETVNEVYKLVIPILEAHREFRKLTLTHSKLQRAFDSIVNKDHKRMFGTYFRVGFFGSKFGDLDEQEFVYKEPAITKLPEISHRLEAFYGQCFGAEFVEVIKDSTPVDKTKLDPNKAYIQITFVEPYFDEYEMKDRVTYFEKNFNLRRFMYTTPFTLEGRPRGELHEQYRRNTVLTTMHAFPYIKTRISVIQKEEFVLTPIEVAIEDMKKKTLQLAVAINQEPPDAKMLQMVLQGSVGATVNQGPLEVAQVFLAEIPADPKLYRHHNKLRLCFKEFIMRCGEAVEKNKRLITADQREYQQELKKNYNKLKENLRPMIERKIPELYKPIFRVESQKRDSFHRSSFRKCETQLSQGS
UniProt P51124: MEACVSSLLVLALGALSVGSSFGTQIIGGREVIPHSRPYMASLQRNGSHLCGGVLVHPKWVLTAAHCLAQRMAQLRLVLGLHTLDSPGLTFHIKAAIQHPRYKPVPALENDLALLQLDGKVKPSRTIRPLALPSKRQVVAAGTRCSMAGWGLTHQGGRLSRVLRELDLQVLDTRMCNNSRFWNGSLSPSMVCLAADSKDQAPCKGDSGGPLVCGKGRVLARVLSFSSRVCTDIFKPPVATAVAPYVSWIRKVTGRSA

B1: AP1G2 (γ2 subunit of AP-1 complex) (protein, UniProt O75843 1-785)
chain: MVVPSLKLQDLIEEIRGAKTQAQEREVIQKECAHIRASFRDGDPVHRHRQLAKLLYVHMLGYPAHFGQMECLKLIASSRFTDKRVGYLGAMLLLDERHDAHLLITNSIKNDLSQGIQPVQGLALCTLSTMGSAEMCRDLAPEVEKLLLQPSPYVRKKAILTAVHMIRKVPELSSVFLPPCAQLLHERHHGILLGTITLITELCERSPAALRHFRKVVPQLVHILRTLVTMGYSTEHSISGVSDPFLQVQILRLLRILGRNHEESSETMNDLLAQVATNTDTSRNAGNAVLFETVLTIMDIRSAAGLRVLAVNILGRFLLNSDRNIRYVALTSLLRLVQSDHSAVQRHRPTVVECLRETDASLSRRALELSLALVNSSNVRAMMQELQAFLESCPPDLRADCASGILLAAERFAPTKRWHIDTILHVLTTAGTHVRDDAVANLTQLIGGAQELHAYSVRRLYNALAEDISQQPLVQVAAWCIGEYGDLLLAGNCEEIEPLQVDEEEVLALLEKVLQSHMSLPATRGYALTALMKLSTRLCGDNNRIRQVVSIYGSCLDVELQQRAVEYDTLFRKYDHMRAAILEKMPLVERDGPQADEEAKESKEAAQLSEAAPVPTEPQASQLLDLLDLLDGASGDVQHPPHLDPSPGGALVHLLDLPCVPPPPAPIPDLKVFEREGVQLNLSFIRPPENPALLLITITATNFSEGDVTHFICQAAVPKSLQLQLQAPSGNTVPARGGLPITQLFRILNPNKAPLRLKLRLTYDHFHQSVQEIFEVNNLPVESWQ
B2: CCDC88B (protein, UniProt A6NC98 1-1476)
chain: MEGGKGPRLRDFLSGSLATWALGLAGLVGEAEDSEGEEEEEEEEPPLWLEKRFLRLSDGALLLRVLGIIAPSSRGGPRMLRGLDGPAAWRVWNLNHLWGRLRDFYQEELQLLILSPPPDLQTLGFDPLSEEAVEQLEGVLRLLLGASVQCEHRELFIRHIQGLSLEVQSELAAAIQEVTQPGAGVVLALSGPDPGELAPAELEMLSRSLMGTLSKLARERDLGAQRLAELLLEREPLCLRPEAPSRAPAEGPSHHLALQLANAKAQLRRLRQELEEKAELLLDSQAEVQGLEAEIRRLRQEAQALSGQAKRAELYREEAEALRERAGRLPRLQEELRRCRERLQAAEAYKSQLEEERVLSGVLEASKALLEEQLEAARERCARLHETQRENLLLRTRLGEAHAELDSLRHQVDQLAEENVELELELQRSLEPPPGSPGEAPLAGAAPSLQDEVREAEAGRLRTLERENRELRGLLQVLQGQPGGQHPLLEAPREDPVLPVLEEAPQTPVAFDHSPQGLVQKARDGGPQALDLAPPALDSVLEASAECPQAPDSDPQEAESPLQAAAMDPQASDWSPQESGSPVETQESPEKAGRRSSLQSPASVAPPQGPGTKIQAPQLLGGETEGREAPQGELVPEAWGLRQEGPEHKPGPSEPSSVQLEEQEGPNQGLDLATGQAEAREHDQRLEGTVRDPAWQKPQQKSEGALEVQVWEGPIPGESLASGVAEQEALREEVAQLRRKAEALGDELEAQARKLEAQNTEAARLSKELAQARRAEAEAHREAEAQAWEQARLREAVEAAGQELESASQEREALVEALAAAGRERRQWEREGSRLRAQSEAAEERMQVLESEGRQHLEEAERERREKEALQAELEKAVVRGKELGDRLEHLQRELEQAALERQEFLREKESQHQRYQGLEQRLEAELQAAATSKEEALMELKTRALQLEEELFQLRQGPAGLGPKKRAEPQLVETQNVRLIEVERSNAMLVAEKAALQGQLQHLEGQLGSLQGRAQELLLQSQRAQEHSSRLQAEKSVLEIQGQELHRKLEVLEEEVRAARQSQEETRGQQQALLRDHKALAQLQRRQEAELEGLLVRHRDLKANMRALELAHRELQGRHEQLQAQRASVEAQEVALLAERERLMQDGHRQRGLEEELRRLQSEHDRAQMLLAELSRERGELQGERGELRGRLARLELERAQLEMQSQQLRESNQQLDLSACRLTTQCELLTQLRSAQEEENRQLLAEVQALSRENRELLERSLESRDHLHREQREYLDQLNALRREKQKLVEKIMDQYRVLEPVPLPRTKKGSWLADKVKRLMRPRREGGPPGGLRLGADGAGSTESLGGPPETELPEGREADGTGSPSPAPMRRAQSSLCLRDETLAGGQRRKLSSRFPVGRSSESFSPGDTPRQRFRQRHPGPLGAPVSHSKGPGVGWENSAETLQEHETDANREGPEVQEPEKRPLTPSLSQ

biological target: NBEAL2 (human (endogenous in primary T cells)) (UniProt Q6ZNJ1); assay: affinity purification with mass spectrometry; anti-NBEAL2 antibody coupled to agarose beads; lysates of activated T cells (Octyl buffer) after reversible cross-linking with DSP; 4 °C overnight; two healthy controls compared with two GPS patients (P6, P7); LC-MS/MS of the IP fractions

Molecule	binding
DOCK8 (from UniProt Q8NF50 1-2099)	binds
GZMM (from UniProt P51124)	binds
LPS-responsive beige-like anchor protein (LRBA) (from UniProt P50851 1-2863)	binds
DYNC1H1 (from UniProt Q14204 1-4646)	binds
B1	binds
B2	binds

Results are given in words; binding and its absence hold for the method and conditions named. Binding seen in cells or lysates may run through a third protein. Here binding means that the protein was enriched with, or labelled near, the bait; the list need not be complete.
